The list shows a part of the results.
Columns and labels:
Experiment in all cases: log2 fold change, soluble protein after heating vs DMSO (PISA); higher = thermal stabilisation; K562 lysate, 10 uM; active = over 0.2 and 3.5 SD of the protein, either way, in both replicates (recomputed)
[1] = compound: C=CC(=O)N1CCC[C@@H](n2nc(-c3ccc(Oc4ccccc4)cc3)c3c(N)ncnc32)C1 [ibrutinib]
Procedure, shortened: (§1)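 Pellets of K562 cells were dounce-homogenised in PBS pH 7.4 with 1 mM MgCl2, and the crude extract was held at 1 mg/mL protein for a 30 min treatment with 10 μM compound. Aliquots were heated for 3 min over 48°C-58°C and pooled before NP-40 was added to 0.5% at 4°C. The supernatant from 21,000xg for 90 min was quantified by TMTpro 16plex LC-MS/MS with channel sums equalised. Values are reported from duplicates as log-two fold change in thermal stability relative to solvent controls.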

Chains of the proteins cited; added tags and fusions are not shown. Lines headed by an entry give the natural chain unless they say otherwise; changes in a name come on top.
UniProt Q6UB28: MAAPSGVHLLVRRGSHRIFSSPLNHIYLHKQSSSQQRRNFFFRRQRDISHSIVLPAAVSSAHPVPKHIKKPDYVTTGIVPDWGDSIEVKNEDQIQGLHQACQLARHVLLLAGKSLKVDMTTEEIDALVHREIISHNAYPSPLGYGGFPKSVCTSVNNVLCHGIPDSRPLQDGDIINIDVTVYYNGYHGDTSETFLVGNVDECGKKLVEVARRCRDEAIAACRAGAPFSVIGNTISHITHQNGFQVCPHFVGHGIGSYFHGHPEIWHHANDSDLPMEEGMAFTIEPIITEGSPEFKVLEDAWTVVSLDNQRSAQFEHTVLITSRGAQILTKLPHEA
UniProt P50579: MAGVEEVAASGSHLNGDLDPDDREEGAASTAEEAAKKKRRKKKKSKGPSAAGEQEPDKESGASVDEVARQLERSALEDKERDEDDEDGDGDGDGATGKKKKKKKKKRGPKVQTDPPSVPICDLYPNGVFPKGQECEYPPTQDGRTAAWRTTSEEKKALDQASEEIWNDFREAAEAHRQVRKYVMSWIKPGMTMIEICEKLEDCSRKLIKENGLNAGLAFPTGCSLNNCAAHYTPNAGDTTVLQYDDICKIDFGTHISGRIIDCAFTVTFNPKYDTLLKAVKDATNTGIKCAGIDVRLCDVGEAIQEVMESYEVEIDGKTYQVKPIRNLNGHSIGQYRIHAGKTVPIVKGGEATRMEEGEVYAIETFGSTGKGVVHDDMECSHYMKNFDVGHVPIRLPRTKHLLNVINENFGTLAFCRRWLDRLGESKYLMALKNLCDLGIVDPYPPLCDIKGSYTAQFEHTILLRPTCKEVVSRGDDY
UniProt Q8NE86: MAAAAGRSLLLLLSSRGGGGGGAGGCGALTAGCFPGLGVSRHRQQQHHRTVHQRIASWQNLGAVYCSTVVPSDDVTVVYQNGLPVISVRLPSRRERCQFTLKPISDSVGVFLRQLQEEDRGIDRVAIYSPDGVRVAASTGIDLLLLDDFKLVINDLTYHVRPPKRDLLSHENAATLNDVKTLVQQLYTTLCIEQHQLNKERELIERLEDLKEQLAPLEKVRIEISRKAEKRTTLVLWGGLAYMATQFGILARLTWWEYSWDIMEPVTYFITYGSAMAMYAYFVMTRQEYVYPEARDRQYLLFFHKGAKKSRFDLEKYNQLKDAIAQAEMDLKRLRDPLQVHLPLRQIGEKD
UniProt Q16626: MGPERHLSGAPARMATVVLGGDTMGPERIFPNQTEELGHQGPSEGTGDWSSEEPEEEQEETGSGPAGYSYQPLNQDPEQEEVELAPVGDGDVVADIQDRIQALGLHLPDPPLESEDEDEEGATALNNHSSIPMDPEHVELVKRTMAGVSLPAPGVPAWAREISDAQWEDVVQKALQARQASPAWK
UniProt Q96IZ6: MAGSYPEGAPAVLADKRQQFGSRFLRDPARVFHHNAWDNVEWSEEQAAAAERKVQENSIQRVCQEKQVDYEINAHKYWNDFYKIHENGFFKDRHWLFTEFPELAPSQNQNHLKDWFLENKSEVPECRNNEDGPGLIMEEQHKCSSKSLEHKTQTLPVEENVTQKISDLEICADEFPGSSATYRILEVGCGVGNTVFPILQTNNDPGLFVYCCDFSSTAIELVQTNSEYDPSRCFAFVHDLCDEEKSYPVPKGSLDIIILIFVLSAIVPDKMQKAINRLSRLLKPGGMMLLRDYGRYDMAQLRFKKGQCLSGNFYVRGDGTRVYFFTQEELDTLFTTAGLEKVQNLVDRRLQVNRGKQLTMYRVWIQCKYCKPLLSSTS
UniProt Q08431: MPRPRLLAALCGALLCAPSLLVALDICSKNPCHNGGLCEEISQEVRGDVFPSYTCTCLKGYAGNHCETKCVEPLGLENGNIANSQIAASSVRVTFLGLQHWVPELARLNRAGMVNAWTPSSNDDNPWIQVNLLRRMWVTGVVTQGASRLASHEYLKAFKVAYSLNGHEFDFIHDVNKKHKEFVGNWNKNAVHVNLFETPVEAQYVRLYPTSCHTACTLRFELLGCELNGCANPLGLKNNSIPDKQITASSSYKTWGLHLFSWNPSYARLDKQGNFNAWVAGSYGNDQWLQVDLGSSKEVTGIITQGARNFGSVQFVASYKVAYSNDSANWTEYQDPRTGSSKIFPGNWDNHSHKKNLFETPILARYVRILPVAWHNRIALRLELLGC
UniProt Q15648, whole entry, looked up: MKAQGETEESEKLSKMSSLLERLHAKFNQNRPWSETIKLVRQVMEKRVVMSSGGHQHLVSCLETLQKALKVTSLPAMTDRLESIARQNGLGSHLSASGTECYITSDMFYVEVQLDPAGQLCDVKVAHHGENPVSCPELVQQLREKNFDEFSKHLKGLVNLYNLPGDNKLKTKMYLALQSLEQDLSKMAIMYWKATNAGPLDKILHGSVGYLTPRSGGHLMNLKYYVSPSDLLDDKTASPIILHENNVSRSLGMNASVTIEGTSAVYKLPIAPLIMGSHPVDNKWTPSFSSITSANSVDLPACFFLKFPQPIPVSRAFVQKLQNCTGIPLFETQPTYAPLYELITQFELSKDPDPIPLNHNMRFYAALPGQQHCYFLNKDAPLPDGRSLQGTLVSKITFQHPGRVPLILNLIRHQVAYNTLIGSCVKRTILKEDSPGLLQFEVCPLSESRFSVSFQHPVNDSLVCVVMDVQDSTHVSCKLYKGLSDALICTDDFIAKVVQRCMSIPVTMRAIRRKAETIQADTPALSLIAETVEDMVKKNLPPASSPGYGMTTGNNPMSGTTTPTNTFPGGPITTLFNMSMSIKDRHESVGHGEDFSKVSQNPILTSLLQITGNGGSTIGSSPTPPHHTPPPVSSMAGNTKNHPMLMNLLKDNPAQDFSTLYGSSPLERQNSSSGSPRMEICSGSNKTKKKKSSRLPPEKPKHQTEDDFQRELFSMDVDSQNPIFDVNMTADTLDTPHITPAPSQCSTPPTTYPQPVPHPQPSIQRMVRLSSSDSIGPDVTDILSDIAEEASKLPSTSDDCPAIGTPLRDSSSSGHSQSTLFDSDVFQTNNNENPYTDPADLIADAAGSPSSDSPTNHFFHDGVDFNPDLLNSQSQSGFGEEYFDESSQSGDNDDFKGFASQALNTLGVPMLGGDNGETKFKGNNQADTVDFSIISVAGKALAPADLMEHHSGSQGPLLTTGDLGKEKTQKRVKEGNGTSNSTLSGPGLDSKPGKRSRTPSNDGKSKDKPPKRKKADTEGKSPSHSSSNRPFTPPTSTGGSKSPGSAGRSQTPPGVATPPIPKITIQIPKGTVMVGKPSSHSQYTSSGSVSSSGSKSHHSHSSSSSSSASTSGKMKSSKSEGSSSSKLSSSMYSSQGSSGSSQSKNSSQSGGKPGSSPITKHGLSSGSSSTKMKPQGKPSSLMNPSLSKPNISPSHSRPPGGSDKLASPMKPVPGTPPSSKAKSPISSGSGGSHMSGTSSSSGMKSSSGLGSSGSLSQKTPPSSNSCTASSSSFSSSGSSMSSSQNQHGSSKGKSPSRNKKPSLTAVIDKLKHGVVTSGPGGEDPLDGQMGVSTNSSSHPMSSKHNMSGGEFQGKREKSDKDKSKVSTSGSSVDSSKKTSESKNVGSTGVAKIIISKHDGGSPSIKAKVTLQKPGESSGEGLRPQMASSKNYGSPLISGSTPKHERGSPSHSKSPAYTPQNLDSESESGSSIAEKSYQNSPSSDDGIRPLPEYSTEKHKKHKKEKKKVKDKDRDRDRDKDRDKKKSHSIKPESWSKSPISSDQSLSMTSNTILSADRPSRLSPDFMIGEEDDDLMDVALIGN
UniProt Q71SY5: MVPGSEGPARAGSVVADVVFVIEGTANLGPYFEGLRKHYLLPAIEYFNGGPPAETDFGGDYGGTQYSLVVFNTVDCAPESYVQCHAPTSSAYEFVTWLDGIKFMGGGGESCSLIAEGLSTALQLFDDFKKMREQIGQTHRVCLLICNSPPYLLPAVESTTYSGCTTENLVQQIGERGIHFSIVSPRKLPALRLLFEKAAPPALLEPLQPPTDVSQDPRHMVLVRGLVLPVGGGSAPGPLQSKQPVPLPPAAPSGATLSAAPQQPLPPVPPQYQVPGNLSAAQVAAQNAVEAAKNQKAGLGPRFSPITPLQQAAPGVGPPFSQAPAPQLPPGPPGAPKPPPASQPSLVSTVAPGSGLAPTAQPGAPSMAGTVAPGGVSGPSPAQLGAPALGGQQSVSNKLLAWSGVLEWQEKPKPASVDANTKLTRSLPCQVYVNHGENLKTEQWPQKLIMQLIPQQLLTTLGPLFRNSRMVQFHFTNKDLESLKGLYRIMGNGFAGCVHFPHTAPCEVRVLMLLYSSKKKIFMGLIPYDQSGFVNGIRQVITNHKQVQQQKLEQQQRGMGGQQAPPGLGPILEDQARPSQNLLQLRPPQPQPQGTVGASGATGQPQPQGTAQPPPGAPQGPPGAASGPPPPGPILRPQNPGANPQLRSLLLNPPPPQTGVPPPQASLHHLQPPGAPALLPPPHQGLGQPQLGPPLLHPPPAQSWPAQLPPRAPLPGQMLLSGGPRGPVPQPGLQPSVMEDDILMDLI
UniProt P61244, whole entry, looked up: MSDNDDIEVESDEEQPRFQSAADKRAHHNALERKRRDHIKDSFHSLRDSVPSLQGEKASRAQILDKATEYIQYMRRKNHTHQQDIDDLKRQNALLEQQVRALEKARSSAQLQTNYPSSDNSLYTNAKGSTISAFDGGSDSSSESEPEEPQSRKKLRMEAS
UniProt P49736, whole entry, looked up: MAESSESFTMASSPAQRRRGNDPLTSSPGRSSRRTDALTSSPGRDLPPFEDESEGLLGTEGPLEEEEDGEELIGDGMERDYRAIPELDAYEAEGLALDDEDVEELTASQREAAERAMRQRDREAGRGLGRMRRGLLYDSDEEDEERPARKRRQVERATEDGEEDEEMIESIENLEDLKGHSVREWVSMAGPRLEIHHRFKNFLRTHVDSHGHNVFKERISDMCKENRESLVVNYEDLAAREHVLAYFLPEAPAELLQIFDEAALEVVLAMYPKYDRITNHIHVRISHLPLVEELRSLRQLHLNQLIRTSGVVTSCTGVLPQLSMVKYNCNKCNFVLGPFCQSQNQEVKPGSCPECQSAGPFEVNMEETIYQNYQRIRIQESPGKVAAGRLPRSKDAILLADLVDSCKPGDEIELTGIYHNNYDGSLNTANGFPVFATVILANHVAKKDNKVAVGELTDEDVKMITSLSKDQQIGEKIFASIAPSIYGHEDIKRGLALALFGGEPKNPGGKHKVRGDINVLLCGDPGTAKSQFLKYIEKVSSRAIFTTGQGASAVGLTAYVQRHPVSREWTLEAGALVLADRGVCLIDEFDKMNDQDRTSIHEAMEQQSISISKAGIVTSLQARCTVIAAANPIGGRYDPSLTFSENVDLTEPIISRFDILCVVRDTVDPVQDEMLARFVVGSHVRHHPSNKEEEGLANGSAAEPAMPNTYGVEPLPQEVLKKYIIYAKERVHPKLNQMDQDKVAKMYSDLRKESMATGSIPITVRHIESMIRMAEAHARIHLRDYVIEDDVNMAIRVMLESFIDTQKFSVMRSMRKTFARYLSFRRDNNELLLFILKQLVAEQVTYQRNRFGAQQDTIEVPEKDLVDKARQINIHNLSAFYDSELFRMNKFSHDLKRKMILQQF
UniProt P23368: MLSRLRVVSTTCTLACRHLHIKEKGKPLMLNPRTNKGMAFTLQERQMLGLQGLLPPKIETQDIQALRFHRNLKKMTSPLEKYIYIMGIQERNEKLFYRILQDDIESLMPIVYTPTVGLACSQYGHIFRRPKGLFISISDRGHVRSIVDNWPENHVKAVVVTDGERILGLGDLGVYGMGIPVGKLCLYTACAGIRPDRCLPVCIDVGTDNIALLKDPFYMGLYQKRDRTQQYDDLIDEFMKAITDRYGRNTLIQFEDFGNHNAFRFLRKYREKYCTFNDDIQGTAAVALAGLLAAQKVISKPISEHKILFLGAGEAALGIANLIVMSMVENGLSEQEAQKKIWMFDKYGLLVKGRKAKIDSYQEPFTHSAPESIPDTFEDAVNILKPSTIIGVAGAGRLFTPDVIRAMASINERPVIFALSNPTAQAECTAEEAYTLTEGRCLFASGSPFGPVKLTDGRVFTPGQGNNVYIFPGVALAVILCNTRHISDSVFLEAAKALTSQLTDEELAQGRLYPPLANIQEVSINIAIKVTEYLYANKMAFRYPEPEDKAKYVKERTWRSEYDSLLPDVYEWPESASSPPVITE
UniProt Q6N075: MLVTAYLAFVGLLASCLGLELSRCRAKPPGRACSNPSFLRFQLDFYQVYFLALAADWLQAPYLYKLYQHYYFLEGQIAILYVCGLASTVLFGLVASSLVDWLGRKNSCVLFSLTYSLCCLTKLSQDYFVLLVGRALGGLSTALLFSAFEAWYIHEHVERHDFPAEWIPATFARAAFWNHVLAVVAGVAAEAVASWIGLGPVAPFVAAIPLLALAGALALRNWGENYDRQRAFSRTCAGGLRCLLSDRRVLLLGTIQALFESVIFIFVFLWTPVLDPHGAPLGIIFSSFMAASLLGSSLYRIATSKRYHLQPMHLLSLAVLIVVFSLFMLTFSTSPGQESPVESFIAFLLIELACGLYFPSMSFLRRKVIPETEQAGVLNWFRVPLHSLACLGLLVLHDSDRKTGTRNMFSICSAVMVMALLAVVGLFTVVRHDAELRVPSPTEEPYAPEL

[2] = compound: CC(=O)c1cnc2ccc(-c3cc(Cl)c(O)c(Cl)c3)nc2c1N[C@H]1CC[C@H](CN(C)C)CC1
Procedure, shortened: as §1

[3] = compound: CC(C)(C)Cn1c(N)nc2ccc(-c3[nH]c(C(C)(C)C)nc3-c3ccc(F)cc3)nc21 [ralimetinib]
Procedure, shortened: as §1

[4] = compound: CC(C)(O)CC(=O)NCCn1ccc2ncnc(Nc3ccc(Oc4cccc(C(F)(F)F)c4)c(Cl)c3)c21
Procedure, shortened: as §1

[5] = compound: CC(C)C1=C2N=C(C=C(N2N=C1)NCC3=CC=CC=C3)NCCCCCCN
Procedure, shortened: as §1

[6] = compound: CC1=C(C(CC(=O)N1)C2=CC=C(C=C2)C(F)(F)F)C(=O)NC3=C(C=C4C(=C3)C=NN4)F
Procedure, shortened: as §1

[7] = compound: CC1=C(C2=C(C=C1)C(=O)C3=CC=CC=C3N2CCCN)C
Procedure, shortened: as §1

[8] = compound: CC1=C(C=C(C=C1)NC(=O)C2=CC(=CC=C2)C(C)(C)C#N)NC3=CC4=C(C=C3)N=CN(C4=O)C
Procedure, shortened: as §1

[9] = compound: CC1=C(C=C(C=C1)NC(=O)C2=CC(=CC=C2)N(C)C)NC(=O)C3=CC=C(C=C3)O
Procedure, shortened: as §1

[10] = compound: CC1=CC=C(C=C1)SC2=C3C=C(SC3=CN=C2)C(=O)N
Procedure, shortened: as §1

Measured: log2 fold change

METAP1D (UniProt Q6UB28)
inactive: [1] 0.021 | [2] -0.029 | [3] 0.01 | [4] 0.029 | [5] -0.011 | [6] 0.03 | [7] 0.004 | [8] 0.104 | [9] -0.024 | [10] -0.021

MED24 (UniProt O75448)
inactive: [1] -0.007 | [2] 0.021 | [3] 0.072 | [4] -0.017 | [5] -0.004 | [6] 0.05 | [7] 0.011 | [8] -0.014 | [9] 0.016 | [10] 0.011

MEF2C isoform 5 (UniProt Q06413)
inactive: [1] 0.026 | [2] -0.035 | [3] -0.06 | [4] -0.013 | [5] -0.021 | [6] -0.057 | [7] -0.018 | [8] 0.071 | [9] 0.023 | [10] -0.046

MCM6 (UniProt Q14566)
inactive: [1] 0.004 | [2] -0.004 | [3] 0.021 | [4] -0.003 | [5] -0.022 | [6] -0.013 | [7] -0.002 | [8] -0.067 | [9] 0.014 | [10] 0.005

METAP1 (UniProt P53582)
inactive: [1] 0.119 | [2] -0.009 | [3] -0.011 | [4] 0.001 | [5] 0.024 | [6] -0.006 | [7] 0.009 | [8] 0.047 | [9] -0.039 | [10] -0.005

METAP2 (UniProt P50579)
inactive: [1] 0.025 | [2] -0.011 | [3] 0.006 | [4] -0.029 | [5] 0.015 | [6] -0.025 | [7] -0.026 | [8] 0.004 | [9] -0.018 | [10] -0.022

MCCC1 (UniProt Q96RQ3)
inactive: [1] 0.034 | [2] -0.033 | [3] 0.022 | [4] -0.042 | [5] -0.014 | [6] -0.028 | [7] 0.026 | [8] -0.006 | [9] -0.004 | [10] 0.013

METTL14 (UniProt Q9HCE5)
inactive: [1] -0.003 | [2] -0.031 | [3] -0.026 | [4] -0.029 | [5] -0.058 | [6] 0.039 | [7] 0.004 | [8] -0.034 | [9] 0.01 | [10] 0.019

MCRS1 isoform 2 (UniProt Q96EZ8)
inactive: [1] 0.067

METTL9 (UniProt Q9H1A3)
inactive: [1] 0.058 | [2] 0.008 | [3] -0.013 | [4] 0.013 | [5] -0.027 | [6] -0.062 | [7] -0.079 | [8] 0.088 | [9] 0.037 | [10] 0.07

MCU (UniProt Q8NE86)
inactive: [1] -0.05 | [2] 0.04 | [3] 0.086 | [4] -0.021 | [5] -0.055 | [6] 0.014 | [7] 0.02 | [8] 0.034 | [9] 0.014 | [10] -0.023

MCM10 (UniProt Q7L590)
inactive: [1] 0.101 | [2] 0.04 | [3] 0.005 | [4] -0.008 | [5] 0.141 | [6] 0.012 | [7] -0.049 | [8] 0.079 | [9] -0.018 | [10] -0.06

MDC1 (UniProt Q14676)
inactive: [1] 0.036 | [2] -0.007 | [3] 0.024 | [4] -0.03 | [5] 0.005 | [6] 0.002 | [7] 0.024 | [8] 0.013 | [9] -0.033 | [10] 0.003

Taken from above (2 entries):
MCCC1 (UniProt Q96RQ3)
inactive: [1] 0.034 | [2] -0.033 | [3] 0.022 | [4] -0.042 | [5] -0.014 | [6] -0.028 | [7] 0.026 | [8] -0.006 | [9] -0.004 | [10] 0.013

METTL14 (UniProt Q9HCE5)
inactive: [1] -0.003 | [2] -0.031 | [3] -0.026 | [4] -0.029 | [5] -0.058 | [6] 0.039 | [7] 0.004 | [8] -0.034 | [9] 0.01 | [10] 0.019

Later entries

MEA1 (UniProt Q16626)
inactive: [1] -0.034 | [2] -0.026 | [3] 0.025 | [4] -0.009 | [5] -0.014 | [6] 0.059 | [7] 0.045 | [8] 0.051 | [9] -0.002 | [10] 0.078

MCM4 (UniProt P33991)
inactive: [1] 0.034 | [2] 0.004 | [3] 0.025 | [4] 0.018 | [5] 0.034 | [6] -0.019 | [7] -0.024 | [8] 0.019 | [9] 0.022 | [10] 0.026

MED7 (UniProt O43513)
inactive: [1] 0.071 | [2] 0.012 | [3] 0.163 | [4] -0.057 | [5] -0.066 | [6] -0.054 | [7] 0.032 | [8] -0.043 | [9] -0.027 | [10] -0.037

METTL2A (UniProt Q96IZ6)
inactive: [1] -0.006 | [2] 0.044 | [3] 0.048 | [4] 0.068 | [5] 0.018 | [6] 0.021 | [7] 0.038 | [8] -0.029 | [9] -0.025 | [10] 0.002

MFGE8 (UniProt Q08431)
inactive: [1] -0.003 | [2] -0.068 | [3] 0.021 | [4] 0.025 | [5] 0.001 | [6] 0.028 | [7] -0.044 | [8] 0.03 | [9] -0.014 | [10] -0.078

MED1 (UniProt Q15648)
inactive: [1] 0.024 | [2] 0.013 | [3] -0.031 | [4] -0.003 | [5] 0.005 | [6] -0.011 | [7] -0.011 | [8] -0.01 | [9] 0.018 | [10] 0.002

MED25 isoform 3 (UniProt Q71SY5)
inactive: [1] -0.034 | [2] 0.001 | [3] -0.071 | [4] 0.045 | [5] -0.023 | [6] 0.038 | [7] -0.039 | [8] 0.035 | [9] 0.057 | [10] 0.025

MCM5 (UniProt P33992)
inactive: [1] 0.004 | [2] -0.015 | [3] -0.006 | [4] 0.038 | [5] 0.003 | [6] -0.023 | [7] -0.017 | [8] -0.003 | [9] -0.01 | [10] 0.022

MCMBP isoform 2 (UniProt Q9BTE3)
inactive: [1] -0.032 | [2] -0.055 | [3] -0.138 | [4] 0.068 | [5] 0.114 | [6] -0.111 | [7] -0.05 | [8] 0.063 | [9] 0.12 | [10] 0.005

MEMO1 (UniProt Q9Y316)
inactive: [1] -0.007 | [2] 0.013 | [3] -0.016 | [4] -0.031 | [5] -0.032 | [6] -0.003 | [7] 0.037 | [8] 0.012 | [9] -0.011 | [10] 0.038

MEAK7 (UniProt Q6P9B6)
inactive: [1] 0.01 | [2] 0.015 | [3] -0.029 | [4] -0.002 | [5] -0.052 | [6] -0.012 | [7] -0.018 | [8] 0.014 | [9] 0.036 | [10] -0.028

MEF2D (UniProt Q14814)
inactive: [1] 0.015 | [2] 0.01 | [3] 0.08 | [4] -0.019 | [5] -0.003 | [6] 0.051 | [7] -0.003 | [8] -0.038 | [9] 0.013 | [10] 0.032

MAX (UniProt P61244)
inactive: [1] -0.026 | [2] -0.019 | [3] -0.012 | [4] -0.034 | [5] -0.001 | [6] 0.09 | [7] 0.001 | [8] 0.001 | [9] 0.009 | [10] -0.036

MCM2 (UniProt P49736)
inactive: [1] -0.013 | [2] -0.024 | [3] 0.014 | [4] -0.01 | [5] -0.001 | [6] 0.002 | [7] -0.025 | [8] -0.031 | [9] 0.014 | [10] 0.013

ME2 (UniProt P23368)
inactive: [1] 0.003 | [2] -0.004 | [3] -0.005 | [4] 0.029 | [5] -0.042 | [6] -0.011 | [7] -0.029 | [8] 0.008 | [9] -0.001 | [10] 0.021

MCOLN1 (UniProt Q9GZU1)
inactive: [1] 0.018 | [2] 0.036 | [3] 0.065 | [4] 0.071 | [5] -0.252 | [6] 0.213 | [7] 0.101 | [8] 0.01 | [9] -0.045 | [10] -0.018

MFSD5 isoform 2 (UniProt Q6N075)
inactive: [1] -0.025 | [2] -0.112 | [3] 0.108 | [4] 0.019 | [5] 0.079 | [6] 0.13 | [7] 0.049 | [8] -0.01 | [9] -0.073 | [10] 0.038
